Taken from: PubChem BioAssay AID1259282 (Sanger Institute, 2017)
In all, the deposit lists 794 reagents; this is a part drawn at random. Of all reagents, 11 (1.4%) were called active. 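Calls flag knock-downs that lower viability without drug; drug synergy appears only in the synergy scores; exposure time not stated.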 Viability is capped at 1. Further read-outs or replicates are left out here. Reagent sequences are not shown. The record does not give: the amount of reagent, the time to read-out.

Screen: 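Kinase knock-downs that work with targeted colorectal cancer drugs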 (primary screen)
Cell system: DIFI human colorectal cancer cell line
Knock-down reagent: siRNA pool against human genes
Conditions: anchor drug at a mild dose (BYL719 1 µM, cetuximab 5 µg/ml, trametinib 10 nM) or DMSO vehicle; exposure time not given
Measurement: 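Viability relative to non-targeting pool wells, replicate mean, in DMSO or low-dose BYL719, cetuximab or trametinib; robust z-score without drug; synergy score per drug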
Scale: robust z-score, knock-down alone: higher = more viable cells than typical knock-down; viability, knock-down alone: higher = more viable cells
Active means: 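a knock-down is called essential if its DMSO robust z-score is under -3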
Meaning of the calls: active = essential (knock-down alone, z below -3); inactive = not essential

With knock-down of EIF2AK1 (eukaryotic translation initiation factor 2 alpha kinase 1), the screen gave robust z-score, knock-down alone 0.24; viability, knock-down alone (fraction of control) = 0.931; inactive.
For DSTYK (dual serine/threonine and tyrosine protein kinase), the values are robust z-score, knock-down alone 0.715; viability, knock-down alone (fraction of control) = 1; inactive.
After knock-down of THNSL1 (threonine synthase like 1), the screen gave robust z-score, knock-down alone 0.632; viability, knock-down alone (fraction of control) = 0.988; inactive.
Depletion of ERBB2 (erb-b2 receptor tyrosine kinase 2) resulted in: robust z-score, knock-down alone 0.715; viability, knock-down alone (fraction of control) = 1; inactive.
For PFKL (phosphofructokinase, liver type), the entry reads robust z-score, knock-down alone 0.715; viability, knock-down alone (fraction of control) = 1; inactive.
After knock-down of MAPKAPK3 (MAPK activated protein kinase 3), the screen gave robust z-score, knock-down alone -0.591; viability, knock-down alone (fraction of control) = 0.81; inactive.
ALPK2 (alpha kinase 2) scored robust z-score, knock-down alone 0.715; viability, knock-down alone (fraction of control) = 1; inactive.
GUK1 (guanylate kinase 1) gave robust z-score, knock-down alone 0.398; viability, knock-down alone (fraction of control) = 0.954; inactive.
Against MAPK4 (mitogen-activated protein kinase 4), the entry reads robust z-score, knock-down alone -0.981; viability, knock-down alone (fraction of control) = 0.754; inactive.
TEX14 (testis expressed 14, intercellular bridge forming factor) gave robust z-score, knock-down alone 0.715; viability, knock-down alone (fraction of control) = 1; inactive.
ALPK1 (alpha kinase 1) gave robust z-score, knock-down alone 0.715; viability, knock-down alone (fraction of control) = 1; inactive.
TSKS (testis specific serine kinase substrate) showed robust z-score, knock-down alone 0.715; viability, knock-down alone (fraction of control) = 1; inactive.
Knock-down of ELF3 (E74 like ETS transcription factor 3) resulted in: robust z-score, knock-down alone -0.993; viability, knock-down alone (fraction of control) = 0.752; inactive.
With knock-down of PPP2R1A (protein phosphatase 2 scaffold subunit Aalpha) the results were robust z-score, knock-down alone 0.715; viability, knock-down alone (fraction of control) = 1; inactive.
Silencing of LRRK1 (leucine rich repeat kinase 1) resulted in: robust z-score, knock-down alone 0.715; viability, knock-down alone (fraction of control) = 1; inactive.
After knock-down of MARK4 (microtubule affinity regulating kinase 4), the record shows robust z-score, knock-down alone -1.74; viability, knock-down alone (fraction of control) = 0.644; inactive.
For TNNI3K (TNNI3 interacting kinase), the entry reads robust z-score, knock-down alone 0.715; viability, knock-down alone (fraction of control) = 1; inactive.
After knock-down of MAST3 (microtubule associated serine/threonine kinase 3) the results were robust z-score, knock-down alone 0.462; viability, knock-down alone (fraction of control) = 0.963; inactive.
Depletion of MAP2K6 (mitogen-activated protein kinase kinase 6) gave: robust z-score, knock-down alone 0.669; viability, knock-down alone (fraction of control) = 0.993; inactive.
